From paper PMC7144902

Key:
Assay in all cases: EMSA
[1] = molecular target: MeCP2[77-167] (Homo sapiens) (UniProt P51608); details: EMSA: 10 mM Tris-HCl pH 7.5, 150 mM KCl (250 mM for MeCP2[1-486]), 0.1 mg/ml BSA, 5% glycerol, 0.1 mM EDTA, 1 ug poly(dA-dT), 1 ng probe, 20 ul, 30 min on ice, recombinant protein, residues 77-167, protein details: C-terminal His, label: 32P
[2] = molecular target: MeCP2[1-486] (Homo sapiens) (UniProt P51608); details: 250 mM KCl, EMSA: 10 mM Tris-HCl pH 7.5, 150 mM KCl (250 mM for MeCP2[1-486]), 0.1 mg/ml BSA, 5% glycerol, 0.1 mM EDTA, 1 ug poly(dA-dT), 1 ng probe, 20 ul, 30 min on ice, recombinant protein, residues 1-486, protein details: C-terminal His, label: 32P
[3] = molecular target: MeCP2[1-205] (Homo sapiens) (UniProt P51608); details: EMSA: 10 mM Tris-HCl pH 7.5, 150 mM KCl (250 mM for MeCP2[1-486]), 0.1 mg/ml BSA, 5% glycerol, 0.1 mM EDTA, 1 ug poly(dA-dT), 1 ng probe, 20 ul, 30 min on ice, recombinant protein, residues 1-205, protein details: C-terminal His, label: 32P

Sequence	binding result ([3]; greatly reduced)	further results
AAGCATGCAATGCCCTGGAAGGTGTAATTCTTCTAATAAAAGATGTATCATTTTAAATGC (double strand)		binding result ([1]; reduced to near background): binds more weakly; binding result ([2]; indistinguishable from CG background, abstract: failed to bind): binds more weakly
AAGCATGCAATGCCCTGGAATTGTAATTCTTCTAATAAAAGATGTATCATTTTAAATGC (double strand)	binds more weakly	
AAGCATGCAATGCCCTGGAACGGAATTCTTCTAATAAAAGATGTATCATTTTAAATGC (double strand) [mCG]		binding result ([1]; 5mC at strand 1 position 21, reverse strand the appropriate methylated oligo (position not given)): binds
AAGCATGCAATGCCCTGGAAGTATAATTCTTCTAATAAAAGATGTATCATTTTAAATGC (double strand)	binds more weakly	
AAGCATGCAATGCCCTGGAAGTGCAATTCTTCTAATAAAAGATGTATCATTTTAAATGC (double strand)	binds more weakly	
AAGCATGCAATGCCCTGGAAGTGTAACGCTTCTCGTACGAGATGTATCATTTTAAATGC (double strand) [GT2-A/T mut]	binds more weakly	
AAGCATGCAATGCCCTGGAAGTCTAATTCTTCTAATAAAAGATGTATCATTTTAAATGC (double strand)	binds more weakly	
AAGCATGCAATGCCCTGGAAGTGAAATTCTTCTAATAAAAGATGTATCATTTTAAATGC (double strand)	binds more weakly	
AAGCATGCAATGCCCTGGAAGTTTAATTCTTCTAATAAAAGATGTATCATTTTAAATGC (double strand)	binds more weakly	
AAGCATGCAATGCCCTGGAAATGTAATTCTTCTAATAAAAGATGTATCATTTTAAATGC (double strand)	binds more weakly	
AAGCATGCAATGCCCTGGAAGTGGAATTCTTCTAATAAAAGATGTATCATTTTAAATGC (double strand)	binds more weakly	
AAGCATGCAATGCCCTGGAACTGTAATTCTTCTAATAAAAGATGTATCATTTTAAATGC (double strand)	binds more weakly	
AAGCATGCAATGCCCTGGAAACACAATTCTTCTAATAAAAGATGTATCATTTTAAATGC (double strand) [GT2-inv bot]		binding result ([3]; diminished): binds more weakly
AAGCATGCAATGCCCTGGAACGGAATTCTTCTAATAAAAGATGTATCATTTTAAATGC (double strand) [CG (parent)]		binding result ([2]; high nonspecific background): binds more weakly

The comparison behind a weaker result is the experiment's own reference, which may not be listed here. For part of these data: The exact form of at least one protein or probe is not confirmed. For part of these data: At least one verdict rests on a figure or table, not on a statement of the authors.
